Where “and” joins values, the source holds several entries; their conditions need not be identical. Identical values can stand only once. Like-named read-outs stand apart in the source and are kept apart here. Further values from the same series stand in other lists.
Test system: ATCC strain 43300 Staphylococcus aureus
Details: for survival (cfu/ml): triplicate platings
[1] = 12 μg/ml oxacillin + MSM (% in label), 120 hours, listed as 8% MSM
[2] = 12 μg/ml oxacillin + MSM (% in label), 120 hours, listed as 9% MSM
[3] = 12 μg/ml oxacillin + MSM (% in label), 120 hours, listed as 10% MSM
[4] = 12 μg/ml oxacillin + MSM (% in label), 120 hours, listed as 11% MSM
[5] = 12 μg/ml oxacillin + MSM (% in label), 120 hours, listed as 12% MSM
[6] = 12 μg/ml oxacillin + MSM (% in label), 120 hours, listed as 13% MSM
[7] = 12 μg/ml oxacillin + MSM (% in label), 120 hours, listed as 14% MSM
[8] = 12 μg/ml oxacillin + MSM (% in label), 120 hours, listed as 15% MSM
[9] = 12 μg/ml oxacillin + MSM (% in label), 120 hours, listed as 16% MSM

CS(C)(=O)=O [MSM, Methylsulfonylmethane]
survival, Average Log [1]: 5.5 Log | survival, Average Log [2]: 5.5 Log | survival, Average Log [3]: 5.5 Log | survival, Average Log [4]: 5.5 Log | survival, Average Log [5]: 5.5 Log | survival, Average Log [6]: 3.8 Log | survival, Average Log [7]: 2.0 Log | survival, Average Log [8]: 2.0 Log | survival, Average Log [9]: 1.5 Log | survival (cfu/ml) (12 μg/ml oxacillin + MSM (% in label), 120 hours, listed as 5% MSM): >3.3 × 10^5 cfu/ml | survival (cfu/ml) (12 μg/ml oxacillin + MSM (% in label), 120 hours, listed as 6% MSM): >3.3 × 10^5 cfu/ml | survival (cfu/ml) (12 μg/ml oxacillin + MSM (% in label), 120 hours, listed as 7% MSM): >3.3 × 10^5 cfu/ml | survival (cfu/ml) [1]: >3.3 × 10^5 cfu/ml | survival (cfu/ml) [2]: >3.3 × 10^5 cfu/ml | survival (cfu/ml) [3]: >3.3 × 10^5 cfu/ml | survival (cfu/ml) [4]: >3.3 × 10^5 cfu/ml | survival (cfu/ml) [5]: >3.3 × 10^5 cfu/ml | survival (cfu/ml) [6]: 6.2 × 10^3 cfu/ml and 6.7 × 10^3 cfu/ml | survival (cfu/ml) [7]: 1.1 × 10^2 cfu/ml and 1.2 × 10^2 cfu/ml | survival (cfu/ml) [8]: 1.1 × 10^2 cfu/ml and 1.3 × 10^2 cfu/ml and 1.2 × 10^2 cfu/ml | survival (cfu/ml) [9]: 3.0 × 10^1 cfu/ml and 2.0 × 10^1 cfu/ml | survival (cfu/ml) (30 μg/ml oxacillin + MSM (% in label), 24 hours, listed as 5% MSM): 3.1 × 10^2 cfu/ml and 3.3 × 10^2 cfu/ml | survival (cfu/ml) (30 μg/ml oxacillin + MSM (% in label), 24 hours, listed as 6% MSM): 2.9 × 10^2 cfu/ml | survival (cfu/ml) (30 μg/ml oxacillin + MSM (% in label), 24 hours, listed as 7% MSM): 9.7 × 10^2 cfu/ml and 9.6 × 10^2 cfu/ml and 9.2 × 10^2 cfu/ml | survival (cfu/ml) (30 μg/ml oxacillin + MSM (% in label), 24 hours, listed as 8% MSM): 1.18 × 10^3 cfu/ml and 1.16 × 10^3 cfu/ml | survival (cfu/ml) (30 μg/ml oxacillin + MSM (% in label), 24 hours, listed as 9% MSM): 1.06 × 10^3 cfu/ml and 1.05 × 10^3 cfu/ml and 1.02 × 10^3 cfu/ml | survival (cfu/ml) (30 μg/ml oxacillin + MSM (% in label), 24 hours, listed as 10% MSM): 2.2 × 10^3 cfu/ml and 2.0 × 10^3 cfu/ml | survival (cfu/ml) (30 μg/ml oxacillin + MSM (% in label), 24 hours, listed as 11% MSM): 3.9 × 10^3 cfu/ml and 3.7 × 10^3 cfu/ml | survival (cfu/ml) (30 μg/ml oxacillin + MSM (% in label), 24 hours, listed as 12% MSM): 3.9 × 10^3 cfu/ml | survival (cfu/ml) (30 μg/ml oxacillin + MSM (% in label), 24 hours, listed as 13% MSM): 4.4 × 10^3 cfu/ml and 4.1 × 10^3 cfu/ml and 4.2 × 10^3 cfu/ml | survival (cfu/ml) (30 μg/ml oxacillin + MSM (% in label), 24 hours, listed as 14% MSM): 6.1 × 10^3 cfu/ml and 6.0 × 10^3 cfu/ml | survival (cfu/ml) (30 μg/ml oxacillin + MSM (% in label), 24 hours, listed as 15% MSM): 8.7 × 10^3 cfu/ml and 8.9 × 10^3 cfu/ml and 8.8 × 10^3 cfu/ml | survival (cfu/ml) (30 μg/ml oxacillin + MSM (% in label), 24 hours, listed as 16% MSM): 8.3 × 10^3 cfu/ml and 8.0 × 10^3 cfu/ml | survival (cfu/ml) (30 μg/ml oxacillin + MSM (% in label), 48 hours, listed as 5% MSM): 5.8 × 10^3 cfu/ml and 6.0 × 10^3 cfu/ml and 5.9 × 10^3 cfu/ml | survival (cfu/ml) (30 μg/ml oxacillin + MSM (% in label), 48 hours, listed as 6% MSM): 5.5 × 10^3 cfu/ml and 5.9 × 10^3 cfu/ml | survival (cfu/ml) (30 μg/ml oxacillin + MSM (% in label), 48 hours, listed as 7% MSM): 2.0 × 10^2 cfu/ml and 2.1 × 10^2 cfu/ml and 2.2 × 10^2 cfu/ml | survival (cfu/ml) (30 μg/ml oxacillin + MSM (% in label), 48 hours, listed as 8% MSM): 1.23 × 10^3 cfu/ml and 1.24 × 10^3 cfu/ml and 1.20 × 10^3 cfu/ml | survival (cfu/ml) (30 μg/ml oxacillin + MSM (% in label), 48 hours, listed as 9% MSM): 2.8 × 10^2 cfu/ml and 2.6 × 10^2 cfu/ml and 2.2 × 10^2 cfu/ml | survival (cfu/ml) (30 μg/ml oxacillin + MSM (% in label), 48 hours, listed as 10% MSM): 4.3 × 10^2 cfu/ml and 4.0 × 10^2 cfu/ml | survival (cfu/ml) (30 μg/ml oxacillin + MSM (% in label), 48 hours, listed as 11% MSM): 2.5 × 10^2 cfu/ml and 2.7 × 10^2 cfu/ml and 2.8 × 10^2 cfu/ml | survival (cfu/ml) (30 μg/ml oxacillin + MSM (% in label), 48 hours, listed as 12% MSM): 3.9 × 10^2 cfu/ml and 3.6 × 10^2 cfu/ml and 4.0 × 10^2 cfu/ml | survival (cfu/ml) (30 μg/ml oxacillin + MSM (% in label), 48 hours, listed as 13% MSM): 3.0 × 10^2 cfu/ml and 3.1 × 10^2 cfu/ml | survival (cfu/ml) (30 μg/ml oxacillin + MSM (% in label), 48 hours, listed as 14% MSM): 3.6 × 10^2 cfu/ml and 3.2 × 10^2 cfu/ml and 3.5 × 10^2 cfu/ml | survival (cfu/ml) (30 μg/ml oxacillin + MSM (% in label), 48 hours, listed as 15% MSM): 6.2 × 10^2 cfu/ml and 6.4 × 10^2 cfu/ml | survival (cfu/ml) (30 μg/ml oxacillin + MSM (% in label), 48 hours, listed as 16% MSM): 4.6 × 10^2 cfu/ml and 4.0 × 10^2 cfu/ml and 4.1 × 10^2 cfu/ml | survival (cfu/ml) (30 μg/ml oxacillin + MSM (% in label), 72 hours, listed as 5% MSM): >3.3 × 10^5 cfu/ml | survival (cfu/ml) (30 μg/ml oxacillin + MSM (% in label), 72 hours, listed as 6% MSM): >3.3 × 10^5 cfu/ml | survival (cfu/ml) (30 μg/ml oxacillin + MSM (% in label), 72 hours, listed as 7% MSM): 3.6 × 10^4 cfu/ml and 3.2 × 10^4 cfu/ml | survival (cfu/ml) (30 μg/ml oxacillin + MSM (% in label), 72 hours, listed as 8% MSM): >3.3 × 10^5 cfu/ml | survival (cfu/ml) (30 μg/ml oxacillin + MSM (% in label), 72 hours, listed as 9% MSM): 8.8 × 10^2 cfu/ml and 8.1 × 10^2 cfu/ml and 8.5 × 10^2 cfu/ml | survival (cfu/ml) (30 μg/ml oxacillin + MSM (% in label), 72 hours, listed as 10% MSM): 8.9 × 10^3 cfu/ml and 9.0 × 10^3 cfu/ml and 8.5 × 10^3 cfu/ml | survival (cfu/ml) (30 μg/ml oxacillin + MSM (% in label), 72 hours, listed as 11% MSM): 1.2 × 10^3 cfu/ml and 1.7 × 10^3 cfu/ml and 1.5 × 10^3 cfu/ml | survival (cfu/ml) (30 μg/ml oxacillin + MSM (% in label), 72 hours, listed as 12% MSM): 4.8 × 10^2 cfu/ml and 3.9 × 10^2 cfu/ml and 4.9 × 10^2 cfu/ml | survival (cfu/ml) (30 μg/ml oxacillin + MSM (% in label), 72 hours, listed as 14% MSM): 1.4 × 10^2 cfu/ml and 1.7 × 10^2 cfu/ml and 1.8 × 10^2 cfu/ml | survival (cfu/ml) (30 μg/ml oxacillin + MSM (% in label), 72 hours, listed as 15% MSM): 2.3 × 10^2 cfu/ml and 2.2 × 10^2 cfu/ml and 2.8 × 10^2 cfu/ml | survival (cfu/ml) (30 μg/ml oxacillin + MSM (% in label), 72 hours, listed as 16% MSM): 9 × 10^1 cfu/ml and 8.0 × 10^1 cfu/ml | survival, Average Log (30 μg/ml oxacillin + MSM (% in label), 96 hours, listed as 5% MSM): 5.5 Log | survival, Average Log (30 μg/ml oxacillin + MSM (% in label), 96 hours, listed as 6% MSM): 5.5 Log | survival, Average Log (30 μg/ml oxacillin + MSM (% in label), 96 hours, listed as 7% MSM): 5.5 Log | survival, Average Log (30 μg/ml oxacillin + MSM (% in label), 96 hours, listed as 8% MSM): 5.5 Log | survival, Average Log (30 μg/ml oxacillin + MSM (% in label), 96 hours, listed as 9% MSM): 4.0 Log | survival, Average Log (30 μg/ml oxacillin + MSM (% in label), 96 hours, listed as 10% MSM): 5.5 Log | survival, Average Log (30 μg/ml oxacillin + MSM (% in label), 96 hours, listed as 11% MSM): 5.5 Log
